Earlier results, collected in patent US20050163876A1, “Cancer treatment using natural plant products or essential oils or components from some pistacia species” (DATA MEDICA PADOVA S.p.A., priority 2003, published 2005).
Some of these results come from one statement about several compounds together. At least one structure is not confirmed: it was looked up by name or label, or the drawing left a doubt.

System: DMBA- or NMU-induced rat mammary tumors
Conditions: cited from earlier work

Row | SMILES | complete regression of established tumors
1 | C=C(C)[C@H]1CC=C(C)CC1 [limonene, d-Limonene] | > 80%
2 | C=C(C)[C@@H]1CC=C(CO)CC1 [perillyl alcohol] | > 80%
